Reference: PMC6947505
No constants are given. Whether binding was seen depends on the method and setting. In cells and extracts the contact can be indirect. Some binding calls cover weakened binding; strength is not graded here. For some assays here: Where a sequence is shown, tags or fusion partners need not be part of it.

Tests used:
[1] = target: T1, Flag-p52 (1–415 aa) (UniProt Q00653); assay: co-IP; extracts of HEK293T cells transfected with tagged constructs; in some panels treated with EBSS and Baf
T1 sequence: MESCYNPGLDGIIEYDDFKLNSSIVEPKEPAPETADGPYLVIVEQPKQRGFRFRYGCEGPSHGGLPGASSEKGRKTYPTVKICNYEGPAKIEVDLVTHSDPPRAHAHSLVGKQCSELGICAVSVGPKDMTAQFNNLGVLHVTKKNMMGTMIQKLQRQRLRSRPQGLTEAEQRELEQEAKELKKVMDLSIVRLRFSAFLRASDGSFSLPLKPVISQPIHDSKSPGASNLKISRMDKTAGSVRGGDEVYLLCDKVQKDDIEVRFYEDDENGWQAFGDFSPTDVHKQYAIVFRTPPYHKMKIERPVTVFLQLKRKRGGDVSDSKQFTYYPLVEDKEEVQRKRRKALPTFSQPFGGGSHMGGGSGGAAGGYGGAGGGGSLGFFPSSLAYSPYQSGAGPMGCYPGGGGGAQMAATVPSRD

[2] = target: T2, Flag-p100 (FL) (UniProt Q00653); assay: as above
T2 sequence: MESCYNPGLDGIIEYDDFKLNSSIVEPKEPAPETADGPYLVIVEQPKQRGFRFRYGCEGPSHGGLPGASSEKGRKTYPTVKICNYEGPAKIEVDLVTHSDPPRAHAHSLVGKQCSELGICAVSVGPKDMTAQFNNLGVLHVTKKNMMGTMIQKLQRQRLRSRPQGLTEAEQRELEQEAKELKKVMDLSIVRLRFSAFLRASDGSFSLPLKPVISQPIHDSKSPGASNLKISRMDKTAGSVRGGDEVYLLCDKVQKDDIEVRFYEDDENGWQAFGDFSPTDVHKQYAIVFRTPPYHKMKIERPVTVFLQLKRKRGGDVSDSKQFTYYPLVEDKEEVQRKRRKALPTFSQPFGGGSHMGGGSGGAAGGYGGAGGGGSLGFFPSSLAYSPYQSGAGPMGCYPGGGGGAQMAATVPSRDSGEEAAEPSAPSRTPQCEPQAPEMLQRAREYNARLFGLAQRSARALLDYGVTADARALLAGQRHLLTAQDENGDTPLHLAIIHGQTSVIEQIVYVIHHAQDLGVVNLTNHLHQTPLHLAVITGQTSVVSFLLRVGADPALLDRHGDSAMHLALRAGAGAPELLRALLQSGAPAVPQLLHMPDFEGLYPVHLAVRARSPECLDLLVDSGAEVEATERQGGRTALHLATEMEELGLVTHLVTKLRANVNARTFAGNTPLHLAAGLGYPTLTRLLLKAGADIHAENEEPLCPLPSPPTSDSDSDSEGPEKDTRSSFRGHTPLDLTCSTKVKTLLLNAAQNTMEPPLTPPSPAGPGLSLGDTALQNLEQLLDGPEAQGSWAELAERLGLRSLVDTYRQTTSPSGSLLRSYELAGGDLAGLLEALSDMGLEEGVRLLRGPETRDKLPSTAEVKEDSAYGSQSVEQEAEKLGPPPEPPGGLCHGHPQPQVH

[3] = target: T3, HA-p52 (UniProt Q00653); assay: as above
T3 sequence: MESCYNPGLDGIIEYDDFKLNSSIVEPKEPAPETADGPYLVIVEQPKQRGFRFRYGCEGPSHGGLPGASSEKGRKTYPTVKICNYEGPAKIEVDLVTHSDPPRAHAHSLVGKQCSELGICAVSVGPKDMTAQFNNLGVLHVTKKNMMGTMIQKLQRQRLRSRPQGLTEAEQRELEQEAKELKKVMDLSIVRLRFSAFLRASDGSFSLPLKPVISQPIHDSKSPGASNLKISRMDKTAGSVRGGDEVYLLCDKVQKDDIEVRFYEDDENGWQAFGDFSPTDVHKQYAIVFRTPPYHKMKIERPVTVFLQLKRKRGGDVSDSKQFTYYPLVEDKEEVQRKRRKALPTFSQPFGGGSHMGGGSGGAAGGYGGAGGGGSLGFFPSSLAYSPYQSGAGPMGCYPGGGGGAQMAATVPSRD

[4] = target: T4, HA-p100 (UniProt Q00653); assay: as above
T4 sequence: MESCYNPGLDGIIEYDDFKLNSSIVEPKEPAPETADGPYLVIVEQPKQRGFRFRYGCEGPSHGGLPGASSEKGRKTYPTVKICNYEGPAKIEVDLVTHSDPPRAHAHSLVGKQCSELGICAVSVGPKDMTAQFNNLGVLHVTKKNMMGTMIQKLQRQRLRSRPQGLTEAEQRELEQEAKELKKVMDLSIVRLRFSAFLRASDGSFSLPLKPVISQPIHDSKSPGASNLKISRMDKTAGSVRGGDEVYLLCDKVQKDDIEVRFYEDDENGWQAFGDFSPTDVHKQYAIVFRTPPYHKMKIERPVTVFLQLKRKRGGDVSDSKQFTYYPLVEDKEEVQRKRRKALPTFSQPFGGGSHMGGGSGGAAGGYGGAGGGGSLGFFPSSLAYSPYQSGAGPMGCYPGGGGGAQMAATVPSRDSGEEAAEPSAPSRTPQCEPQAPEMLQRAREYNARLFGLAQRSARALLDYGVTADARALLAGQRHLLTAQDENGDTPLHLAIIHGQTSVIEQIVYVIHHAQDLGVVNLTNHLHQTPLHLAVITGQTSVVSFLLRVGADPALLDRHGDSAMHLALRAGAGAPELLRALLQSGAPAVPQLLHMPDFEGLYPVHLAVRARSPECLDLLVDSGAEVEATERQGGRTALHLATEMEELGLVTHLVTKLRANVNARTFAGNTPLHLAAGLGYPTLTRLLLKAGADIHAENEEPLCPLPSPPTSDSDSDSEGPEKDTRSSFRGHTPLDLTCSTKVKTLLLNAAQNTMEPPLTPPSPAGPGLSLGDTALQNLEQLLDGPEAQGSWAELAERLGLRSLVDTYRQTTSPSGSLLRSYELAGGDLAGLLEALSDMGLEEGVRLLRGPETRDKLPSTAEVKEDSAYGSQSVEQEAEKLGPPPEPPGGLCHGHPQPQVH

[5] = target: T5, p100 (endogenous, human cells) (human (endogenous in HeLa, THP-1, PBMCs)) (UniProt Q00653); assay: co-IP; endogenous proteins; extracts of HeLa, THP-1, BMDMs or PBMCs treated with different stimuli (TNFα, EBSS); WT BMDMs compared with Trim14−/− BMDMs
T5 sequence: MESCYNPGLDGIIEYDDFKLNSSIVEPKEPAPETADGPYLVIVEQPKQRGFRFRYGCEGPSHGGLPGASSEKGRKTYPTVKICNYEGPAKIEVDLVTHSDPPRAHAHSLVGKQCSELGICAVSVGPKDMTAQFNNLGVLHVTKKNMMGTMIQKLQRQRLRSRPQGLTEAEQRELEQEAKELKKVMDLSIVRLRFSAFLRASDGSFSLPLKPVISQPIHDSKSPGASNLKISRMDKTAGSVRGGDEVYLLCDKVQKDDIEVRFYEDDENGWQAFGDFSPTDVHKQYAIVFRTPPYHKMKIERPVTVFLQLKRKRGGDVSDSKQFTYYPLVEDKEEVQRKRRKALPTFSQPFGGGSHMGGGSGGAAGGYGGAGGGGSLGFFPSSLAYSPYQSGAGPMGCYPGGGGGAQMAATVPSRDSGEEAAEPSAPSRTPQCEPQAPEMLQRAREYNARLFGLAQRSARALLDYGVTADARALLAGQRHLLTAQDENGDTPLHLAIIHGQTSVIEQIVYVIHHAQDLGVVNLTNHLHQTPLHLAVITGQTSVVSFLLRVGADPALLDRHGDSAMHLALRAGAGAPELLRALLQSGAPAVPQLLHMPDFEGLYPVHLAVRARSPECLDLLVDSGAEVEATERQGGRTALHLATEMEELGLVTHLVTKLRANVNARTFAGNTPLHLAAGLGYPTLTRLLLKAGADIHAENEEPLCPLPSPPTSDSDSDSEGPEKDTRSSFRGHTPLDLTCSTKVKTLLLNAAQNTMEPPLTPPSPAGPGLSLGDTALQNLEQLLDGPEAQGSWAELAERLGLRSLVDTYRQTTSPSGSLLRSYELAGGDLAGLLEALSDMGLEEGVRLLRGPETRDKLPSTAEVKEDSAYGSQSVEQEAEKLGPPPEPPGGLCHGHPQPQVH

## Flag-/Myc-p62 (from UniProt Q13501 1-440)
[1]
  binding: binds
[2]
  binding: binds

## Flag-p62 (from UniProt Q13501 1-440)
[3]
  binding: binds
[4]
  binding: binds

B1: TRIM14 (endogenous, human cells) (protein, UniProt Q14142 1-442)
chain: MAGAATGSRTPGRSELVEGCGWRCPEHGDRVAELFCRRCRRCVCALCPVLGAHRGHPVGLALEAAVHVQKLSQECLKQLAIKKQQHIDNITQIEDATEKLKANAESSKTWLKGKFTELRLLLDEEEALAKKFIDKNTQLTLQVYREQADSCREQLDIMNDLSNRVWSISQEPDPVQRLQAYTATEQEMQQQMSLGELCHPVPLSFEPVKSFFKGLVEAVESTLQTPLDIRLKESINCQLSDPSSTKPGTLLKTSPSPERSLLLKYARTPTLDPDTMHARLRLSADRLTVRCGLLGSLGPVPVLRFDALWQVLARDCFATGRHYWEVDVQEAGAGWWVGAAYASLRRRGASAAARLGCNRQSWCLKRYDLEYWAFHDGQRSRLRPRDDLDRLGVFLDYEAGVLAFYDVTGGMSHLHTFRATFQEPLYPALRLWEGAISIPRLP
[5]
  binding: binds
